Measurements taken from PubChem BioAssay (NCATS).
Inconclusive results, whose numbers are uncertain, are shown with a selection of clear calls. For some assays here: A potency beside an inconclusive call is a rough fit, not a confirmed value. Active and inactive are the calls of the source. Unless noted, the call rests on the fitted dose curve; in most records, active means well fitted curve in the direction sought with a large enough effect; inconclusive means small, poorly fitted or top-dose-only effect, or another doubt; inactive means no such curve, though single readings can be large; an effect the other way counts as inactive or inconclusive.

Amino acid sequences for entries named in this document (tags omitted). A change or cut given only in a name is not applied to a line headed by its entry.
UniProt Q07869: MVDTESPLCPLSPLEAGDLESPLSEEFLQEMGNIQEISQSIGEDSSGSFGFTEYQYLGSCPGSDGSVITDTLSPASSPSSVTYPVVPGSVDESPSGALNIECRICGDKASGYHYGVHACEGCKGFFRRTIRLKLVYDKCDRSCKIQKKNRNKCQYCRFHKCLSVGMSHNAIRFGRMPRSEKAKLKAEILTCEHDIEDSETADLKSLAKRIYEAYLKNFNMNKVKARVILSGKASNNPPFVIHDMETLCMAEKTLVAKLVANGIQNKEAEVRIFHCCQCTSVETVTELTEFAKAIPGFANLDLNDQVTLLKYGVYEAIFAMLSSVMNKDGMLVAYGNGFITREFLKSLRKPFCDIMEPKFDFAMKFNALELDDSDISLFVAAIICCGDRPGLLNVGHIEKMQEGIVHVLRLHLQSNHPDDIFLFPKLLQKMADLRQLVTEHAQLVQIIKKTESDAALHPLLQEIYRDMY
UniProt Q9R1A7: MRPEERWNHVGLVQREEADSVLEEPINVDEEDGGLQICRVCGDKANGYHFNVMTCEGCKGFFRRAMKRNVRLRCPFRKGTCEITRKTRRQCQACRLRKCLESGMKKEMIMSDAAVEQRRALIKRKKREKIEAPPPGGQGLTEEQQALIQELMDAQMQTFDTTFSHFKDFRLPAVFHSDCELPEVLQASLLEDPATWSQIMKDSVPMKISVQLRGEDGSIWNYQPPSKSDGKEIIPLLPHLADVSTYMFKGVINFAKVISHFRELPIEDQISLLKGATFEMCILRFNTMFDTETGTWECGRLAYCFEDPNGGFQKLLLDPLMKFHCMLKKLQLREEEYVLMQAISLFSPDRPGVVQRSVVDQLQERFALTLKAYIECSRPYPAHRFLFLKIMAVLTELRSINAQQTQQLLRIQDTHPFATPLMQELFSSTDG
UniProt P10635, whole entry, looked up: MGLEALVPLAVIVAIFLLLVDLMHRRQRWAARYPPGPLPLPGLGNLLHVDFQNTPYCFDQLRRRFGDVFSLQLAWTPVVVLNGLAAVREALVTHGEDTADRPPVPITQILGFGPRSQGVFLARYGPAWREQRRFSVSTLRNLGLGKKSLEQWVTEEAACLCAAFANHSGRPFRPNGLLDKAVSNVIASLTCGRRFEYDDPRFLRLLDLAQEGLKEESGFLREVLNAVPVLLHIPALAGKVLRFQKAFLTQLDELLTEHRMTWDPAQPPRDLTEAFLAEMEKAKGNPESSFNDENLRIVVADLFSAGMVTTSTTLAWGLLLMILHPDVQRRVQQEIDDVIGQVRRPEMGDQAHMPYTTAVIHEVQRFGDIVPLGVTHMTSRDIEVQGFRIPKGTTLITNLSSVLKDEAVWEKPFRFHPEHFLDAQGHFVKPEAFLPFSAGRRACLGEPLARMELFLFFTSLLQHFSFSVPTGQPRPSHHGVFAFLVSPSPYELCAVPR
UniProt Q03181: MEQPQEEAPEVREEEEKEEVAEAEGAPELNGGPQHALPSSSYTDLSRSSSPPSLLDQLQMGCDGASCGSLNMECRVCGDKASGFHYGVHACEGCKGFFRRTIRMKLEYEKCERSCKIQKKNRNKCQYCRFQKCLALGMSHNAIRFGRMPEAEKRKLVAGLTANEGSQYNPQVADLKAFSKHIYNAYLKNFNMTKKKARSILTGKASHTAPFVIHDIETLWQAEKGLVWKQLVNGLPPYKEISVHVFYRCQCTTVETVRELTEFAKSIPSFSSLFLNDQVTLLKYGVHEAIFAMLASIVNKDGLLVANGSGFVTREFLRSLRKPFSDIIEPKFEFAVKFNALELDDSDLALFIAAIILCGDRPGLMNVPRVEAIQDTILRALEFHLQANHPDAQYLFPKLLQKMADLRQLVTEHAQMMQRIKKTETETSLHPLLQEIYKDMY
UniProt P39748, whole entry, looked up: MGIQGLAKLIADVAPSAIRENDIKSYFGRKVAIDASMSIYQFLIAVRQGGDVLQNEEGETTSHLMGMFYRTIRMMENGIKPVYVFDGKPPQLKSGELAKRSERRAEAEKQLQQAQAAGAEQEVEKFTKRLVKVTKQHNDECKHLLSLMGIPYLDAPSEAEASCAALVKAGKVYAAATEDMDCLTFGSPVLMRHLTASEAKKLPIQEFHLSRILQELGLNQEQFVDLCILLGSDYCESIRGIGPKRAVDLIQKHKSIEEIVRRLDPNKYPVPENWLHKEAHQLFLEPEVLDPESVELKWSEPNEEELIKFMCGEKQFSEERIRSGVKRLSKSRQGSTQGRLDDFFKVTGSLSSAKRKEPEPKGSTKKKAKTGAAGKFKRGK
UniProt Q14994: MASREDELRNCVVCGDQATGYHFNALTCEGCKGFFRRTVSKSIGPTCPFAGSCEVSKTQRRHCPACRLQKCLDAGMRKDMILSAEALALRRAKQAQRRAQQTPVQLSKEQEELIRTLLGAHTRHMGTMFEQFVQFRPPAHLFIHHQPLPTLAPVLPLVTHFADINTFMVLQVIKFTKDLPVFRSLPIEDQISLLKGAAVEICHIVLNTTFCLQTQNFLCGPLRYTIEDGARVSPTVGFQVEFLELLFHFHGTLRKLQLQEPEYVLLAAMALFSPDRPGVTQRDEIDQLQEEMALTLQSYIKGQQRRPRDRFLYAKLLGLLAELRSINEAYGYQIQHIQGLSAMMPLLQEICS
UniProt P05177, whole entry, looked up: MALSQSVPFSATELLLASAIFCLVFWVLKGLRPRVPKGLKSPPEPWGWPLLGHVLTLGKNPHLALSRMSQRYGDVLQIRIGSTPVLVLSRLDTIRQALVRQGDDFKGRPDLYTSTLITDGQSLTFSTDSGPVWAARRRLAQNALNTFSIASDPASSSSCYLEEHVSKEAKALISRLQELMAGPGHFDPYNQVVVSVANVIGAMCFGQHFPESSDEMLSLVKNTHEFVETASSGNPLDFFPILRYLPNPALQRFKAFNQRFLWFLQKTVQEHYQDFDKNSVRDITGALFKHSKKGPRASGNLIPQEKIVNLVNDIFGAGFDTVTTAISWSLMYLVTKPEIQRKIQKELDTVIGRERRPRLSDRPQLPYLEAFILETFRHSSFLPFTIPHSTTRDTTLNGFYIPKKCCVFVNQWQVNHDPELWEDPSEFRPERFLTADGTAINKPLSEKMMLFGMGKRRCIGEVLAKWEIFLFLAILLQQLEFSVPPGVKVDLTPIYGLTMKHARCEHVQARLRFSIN

Legend:
[1] = target: Peroxisome proliferator-activated receptor alpha (Homo sapiens) (UniProt Q07869); assay: qHTS assay for small molecule agonists of the peroxisome proliferator-activated receptor alpha (PPARalpha) signaling pathway (AID 651778); conditions: PathHunter PPARalpha complementation, chemiluminescence, 6 h; further: potency means the concentration at half of the fitted maximal effect
Method in brief: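 Cells plated at 2,000/well and held overnight at 37 C, 5% CO2, then compound added by pin tool for 6 hr; after PathHunter detection reagent and 60 min at room temperature, chemiluminescence from enzyme complementation was read.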

[2] = target: Nuclear receptor subfamily 1 group I member 2 (Rattus norvegicus) (UniProt Q9R1A7); assay: qHTS assay for small molecule activators of the rat pregnane X receptor (rPXR) signaling pathway (AID 651751; call rule not given here; further: 0% is about no effect); conditions: rPXR reporter cells, luciferase (One-Glo), 24 h
[3] = Cell Viability - Hek293 (AID 427;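 active means compounds whose dose-response curve shows a full or clear partial loss of cell viability, called from curve shape rather than a numeric limit; inconclusive means weak partial curves or an effect only at the top dose; inactive means no dose-dependent loss of viability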;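 further: potency means the concentration at half of the fitted maximal effect; cells exposed to compound for 40 hours at 37 °C before reading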); conditions: qHTS
Method in brief: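 qHTS, human embryonic kidney (adenovirus-transformed) cells; 40 hr cpd, 37 °C; CellTiter-Glo ATP luminescence. Norm: DMSO = 0, 100 uM tamoxifen = 100% inhibition. Hill-fit AC50.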

[4] = Cell Viability - HepG2 (AID 433; calls by dose curve;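 further: potency means the concentration at half of the fitted maximal effect; cells exposed to compound for 40 hours; potency for ATP loss meaning cytotoxicity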); conditions: qHTS
Method in brief: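 HepG2 cells, 1500 per well, treated 40 hr at 37 °C in complete medium; viability from intracellular ATP by CellTiter-Glo luminescence. Normalized to DMSO and 100 uM tamoxifen; AC50 from Hill fit of qHTS concentration-response.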

[5] = Cell Viability - N2a (AID 540); conditions: N2a mouse neuroblastoma cell viability; activity change, negative = cytotoxicity: at 92.2 µM (top of the series);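 further: potency means the concentration at half of the fitted maximal effect; cells exposed to compound for 40 h at 37 °C; nearly all actives have a fitted effect of over 45% in size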
Method in brief: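 N2a mouse neuroblastoma, 1500 cells/well, 5 hr settle; compound 40 hr, 37 °C; CellTiter-Glo 20 min RT; luminescence; Hill-fit AC50.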

[6] = target: Cytochrome P450 2D6 (Homo sapiens) (UniProt P10635); assay: qHTS Assay for Inhibitors and Substrates of Cytochrome P450 2D6 (AID 891); conditions: recombinant CYP2D6, luciferin-ME EGE luminescence; activity change, negative = inhibition: at 57.1 µM (top of the series); further: potency means the concentration at half of the fitted maximal effect; nearly all actives have a fitted effect of over 60% in size
Method in brief: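 Luminescent read-out of luciferin formed by 5 nM human CYP2D6 demethylating 30 uM Luciferin-ME EGE (Km level) over 60 min at room temperature after NADPH regeneration addition. Data normalized to full inhibition by 1.43 uM quinidine.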

[7] = Cell Viability - LYMP2-001 (AID 921); conditions: LYMP2-001 lymphoblastoid cell viability; series mostly up to 92.2 µM; further: potency means the concentration at half of the fitted maximal effect; nearly all actives have a fitted effect of over 70% in size
Method in brief: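 Human lymphoblastoid LYMP2-001 cells, 2500 per well, in complete medium, treated 24 h at 37 C. Viability from cellular ATP by CellTiter-Glo luminescence; AC50 from Hill-equation fits of qHTS concentration-response.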

[8] = MultiTox-Fluor Cytotoxicity Assay - LYMP1-001 - Live Cells (AID 947); conditions: LYMP1-001 lymphoblastoid cells, live-cell protease fluorescence viability; series mostly up to 92.2 µM; further: potency means the concentration at half of the fitted maximal effect
[9] = Cell Viability - LYMP1-003 - Assay at 40 hr (AID 964); conditions: LYMP1-003 lymphoblastoid viability; series mostly up to 92.2 µM; further: potency means the concentration at half of the fitted maximal effect; nearly all actives have a fitted effect of over 60% in size
Method in brief: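 LYMP1-003 lymphoblastoid cells, 2500/well; 5 hr preincubation, 40 hr compound exposure, 37 C; CellTiter-Glo 30 min RT; luminescence; Hill-fit AC50. Positive control tetraoctylammonium bromide.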

[10] = target: Glucocorticoid receptor (Homo sapiens) (UniProt P04150); assay: qHTS assay for small molecule antagonists of glucocorticoid receptor signaling (AID 588533; active means well fitted inhibition curve with a large enough effect in the signal ratio, with a control signal flat, not every such curve was filed as active; inconclusive means small, poorly fitted or top-dose-only effect, or effect the other way, or a change in a side signal; the % refers to the signal ratio;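 further: cells stimulated with 2 nM dexamethasone as agonist; potency means the concentration at half of the fitted maximal effect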); conditions: HeLa MMTV-bla, GRE beta-lactamase ratio, antagonist mode, 18 h; activity change, negative = inhibition: at 76.8 µM (top of the series)
[11] = target: Peroxisome proliferator-activated receptor delta (Homo sapiens) (UniProt Q03181); assay: qHTS assay for small molecule agonists of peroxisome proliferator-activated receptor delta signaling (AID 588534; calls by dose curve; further: potency means the concentration at half of the fitted maximal effect); conditions: HEK293T PPARdelta-UAS-bla, beta-lactamase ratio, 18 h; activation: at 76.7 µM (top of the series)
Method in brief: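 Titration series tested in agonist mode on beta-lactamase reporter cells; 18 hrs at 37 C after a 5 hr pre-incubation. Readout: CCF4 fluorescence, 2 hrs RT. Hill equation gives EC50 and maximal response.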

[12] = qHTS assay for small molecule disruptors of the mitochondrial membrane potential - 1 hr assay (AID 651754; calls by dose curve; further: potency means the concentration at half of the fitted maximal effect; nearly all actives have a fitted effect of over 35% in size); conditions: ratio change, negative = depolarisation: at 92.2 µM (top of the series)
Method in brief: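 Read-out: dye fluorescence at 490 nm ex/535 nm em (monomers) and 540 nm ex/590 nm em (aggregates) in HepG2 cells. Compound exposure 1 hr at 37C, followed by 30 min dye loading.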

[13] = target: Flap endonuclease 1 (Homo sapiens) (UniProt P39748); assay: qHTS Assay for the Inhibitors of FEN1: Confirmatory Assay for Cherry-picked Compounds (AID 720498); conditions: FEN1 flap cleavage, TAMRA/BHQ2 fluorogenic DNA substrate; further: potency means the concentration at half of the fitted maximal effect; nearly all actives have a fitted effect of over 60% in size
Method in brief: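 Human FEN1 (10 nM reagent) was preincubated with compounds for 15 min at room temperature, then 50 nM final double-flap DNA substrate (5'-TAMRA flap, BHQ-2 quencher strand) was added. Fluorescence (ex 525/em 598 nm) was read at 0 and 15 min.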

[14] = target: Nuclear receptor subfamily 1 group I member 3 (Homo sapiens) (UniProt Q14994); assay: Primary qHTS for antagonist of constitutive androstane receptor (CAR) against the NCATS DSHEA and TCM libraries (AID 1794836); conditions: CAR reporter cell assay, antagonist mode, luciferase; series mostly up to 40 µM
Method in brief: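 HepG2 cells stably carrying hCAR and a CYP2B6 luciferase reporter (2,500 cells/well) attached for 5 h, then received compounds with 48 uM CITCO for 24 h at 37C. ONE-Glo luminescence read antagonism; CellTiter-Fluor (405/540 nm) gave viability.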

[15] = target: Nuclear receptor subfamily 1 group I member 3 (Homo sapiens) (UniProt Q14994); assay: Primary qHTS for agonist of constitutive androstane receptor (CAR) against the NCATS DSHEA and TCM libraries (AID 1794839); conditions: CAR agonist reporter cells, qHTS luminescence; CAR antagonist co-added at 0.75 µM; further: potency means the concentration at half of the fitted maximal effect
Method in brief: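 HepG2-CYP2B6-hCAR cells, 2,500/well, attached 5 h, then dosed with 0.75 µM PK11195 (final) for 24 h at 37 °C. Luciferase luminescence read (ONE-Glo); CellTiter-Fluor viability (Ex/Em 405/540 nm) in same wells; CITCO positive control.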

[16] = target: Cytochrome P450 2D6 (Homo sapiens) (UniProt P10635); assay: qHTS for inhibitors of CYP2D6 against the NCATS DSHEA and TCM libraries (AID 1919972); conditions: CYP2D6 enzymatic inhibition, luminescence qHTS; series mostly up to 34.1 µM; further: potency means the concentration at half of the fitted maximal effect
Method in brief: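 qHTS, concentration–response format with most substances from 19.5 nM. CYP2D6 + pro-luciferin substrate, 15 min with compound, then 1x NADPH regen, 30–45 min RT dark. Glo detection 30 min, luminescence. Quinidine control.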

[17] = KB-3-1 P-gp reporter qHTS against the NCATS DSHEA and TCM libraries (AID 1919975); conditions: KB-3-1 parental cells, CellTiter-Glo luminescence viability, 72 h; further: potency means the concentration at half of the fitted maximal effect
Method in brief: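 Parental KB-3-1 cells, 500 cells/well, in DMEM with 10% FBS, exposed 72 h at 37 C to compounds in concentration-response. Viability read by CellTiter-Glo luminescence after 30 min at room temperature.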

[18] = target: Cytochrome P450 1A2 (Homo sapiens) (UniProt P05177); assay: qHTS for inhibitors of CYPIA2 against the NCATS DSHEA and TCM libraries (AID 1919976); conditions: recombinant CYP1A2 enzyme activity, luminescence; series mostly up to 20.3 µM; further: potency means the concentration at half of the fitted maximal effect
Method in brief: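 Luminescence read-out: pro-luciferin converted to D-luciferin by CYP1A2, detected with P450-Glo reagent after 30 min RT. Enzyme plus substrate got compounds for 15 min RT; NADPH regeneration solution (final 1x) started a 30-45 min reaction, light-protected.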

[19] = Dual reporter qHTS for antagonist of Pregnane X Receptor (hPXR) against the NCATS DSHEA and TCM libraries: Fluorescence Readout (AID 1920061); conditions: PXR dual reporter cells, antagonist mode; at 40 µM (top of the series); further: 0% is about no effect
Method in brief: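 HepG2 hPXR-Luc, 2000 cells/well, charcoal-stripped FBS medium; 5 h attach; RIF 2 uM final; 24 h 37C/5% CO2; CellTiter-Fluor 1 h, fluor 405/540; ONE-Glo 30 min RT, lum.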

JCK = assay: qHTS profiling for inhibitors of Plasmodium falciparum proliferation (AID 504749); further: potency means the concentration at half of the fitted maximal effect; nearly all actives have a fitted effect of over 60% in size; conditions: P. falciparum in erythrocytes, SYBR Green DNA, 72 h; series mostly up to 28.7 µM
Method in brief: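 Fluorescence of SYBR Green-bound parasite DNA, read at 485/535 nm, served as the growth measure. Infected erythrocytes were cultured with compound 72 h; artemisinin (0.29 uM) and DMSO wells defined the normalization range.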

| Structure (SMILES) | Potency [1] | max response [2] | Potency [3] | Potency [4] | Potency [5] | Potency [6] | Potency [7] | Potency [8] | Potency [9] | Potency [10] | Potency [11] | Potency [12] | Potency [13] | Potency [14] | Potency [15] | Potency [16] | Potency [17] | Potency [18] | activity change, negative = inhibition [19] | Potency (JCK) |
| --- | --- | --- | --- | --- | --- | --- | --- | --- | --- | --- | --- | --- | --- | --- | --- | --- | --- | --- | --- | --- |
| CCCCCCCCOc1ccc(C(=O)c2ccccc2)c(O)c1 | inconclusive: 44.7 µM [activator, partial curve, poor fit] | inactive: -1.61% | – | – | – | – | – | – | – | – | – | – | – | – | – | – | – | – | – | – |
| COc1ccc2cc3[n+](cc2c1OC)CCc1cc2c(cc1-3)OCO2 | – | – | inconclusive: 71.8 µM [partial curve] | inconclusive: 143 µM [single point] | active: 1.26 µM | active: 2.51 µM | active: 39.8 µM | inconclusive: 39.8 µM [cytotoxic, partial curve, poor fit] | inconclusive: 20 µM [cytotoxic, partial curve] | inconclusive: 3.16 µM [activator, full curve] | inconclusive: 20 µM [falling, partial curve, poor fit] | active: 21.1 µM | inconclusive: 37.9 µM [inhibitor, partial curve] | inactive | inconclusive: 15.8 µM [activator, full curve, poor fit] | active: 2.24 µM | active: 2 µM | inconclusive: 14.1 µM [inhibitor, partial curve] | inactive: -16.1% | active: 3.16 µM |
